Our source for the binding values is paper PMC10800354.

The target of this experiment is T1, FLAG-NAT10 (pICE-FLAG-NAT10-siR-WT) in SCC-4 cells (UniProt Q9H0A0).
T1 sequence: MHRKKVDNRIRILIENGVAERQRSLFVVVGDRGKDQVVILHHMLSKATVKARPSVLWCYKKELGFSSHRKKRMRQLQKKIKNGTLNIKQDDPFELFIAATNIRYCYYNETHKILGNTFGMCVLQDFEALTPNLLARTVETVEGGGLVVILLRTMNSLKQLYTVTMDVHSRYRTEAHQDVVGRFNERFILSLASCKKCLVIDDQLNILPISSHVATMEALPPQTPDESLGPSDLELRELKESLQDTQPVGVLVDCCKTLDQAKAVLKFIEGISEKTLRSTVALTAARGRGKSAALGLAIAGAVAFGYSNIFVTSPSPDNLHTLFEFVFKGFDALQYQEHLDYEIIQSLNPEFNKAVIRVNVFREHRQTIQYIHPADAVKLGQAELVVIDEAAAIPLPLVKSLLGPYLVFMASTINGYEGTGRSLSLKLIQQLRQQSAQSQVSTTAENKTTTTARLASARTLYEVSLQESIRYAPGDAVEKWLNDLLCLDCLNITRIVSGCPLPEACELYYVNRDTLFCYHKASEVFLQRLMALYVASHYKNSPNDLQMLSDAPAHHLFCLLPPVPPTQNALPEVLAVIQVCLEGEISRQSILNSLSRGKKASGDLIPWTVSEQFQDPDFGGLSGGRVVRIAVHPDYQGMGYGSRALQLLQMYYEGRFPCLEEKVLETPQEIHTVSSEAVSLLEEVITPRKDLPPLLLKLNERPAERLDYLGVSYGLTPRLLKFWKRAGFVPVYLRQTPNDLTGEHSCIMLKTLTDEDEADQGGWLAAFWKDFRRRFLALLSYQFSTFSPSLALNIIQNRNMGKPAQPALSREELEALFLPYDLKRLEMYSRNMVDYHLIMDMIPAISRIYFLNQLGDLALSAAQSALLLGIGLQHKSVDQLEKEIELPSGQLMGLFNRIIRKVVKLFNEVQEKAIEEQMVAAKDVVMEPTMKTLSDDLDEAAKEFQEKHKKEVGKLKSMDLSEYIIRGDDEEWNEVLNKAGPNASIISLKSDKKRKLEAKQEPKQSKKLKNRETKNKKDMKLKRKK
Description: co-IP; SCC-4 cells co-transfected with pICE-FLAG-NAT10-siR-WT and pcDNA3.1-HA-RNPS1 variants; lysate after 24-48 h immunoprecipitated with anti-Flag antibody and Protein A/G magnetic beads, detected with anti-HA antibody.

No constants are given. Whether binding was seen depends on the method and setting. Binding seen in cells or lysates may run through a third protein. A result given as binding can be weak or reduced; the word gives no strength. Tags and fused reporters may be left off the sequences shown.

Turning to “HA-tagged RNPS1 N-terminal region with the serine-rich domain (NT+S) (domain or fragment)”, the binding result was “binds”.

Take “HA-tagged RNPS1 without the arginine/serine/proline-rich domain (ΔRS/P) (domain or fragment)”: the binding result is given as “binds”.
